PubChem BioAssay AID686943 – Drosophila RNAi Screening Center | 2013

- Aim: 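Knockdowns that increase or decrease active ERK after insulin receptor stimulation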 (primary screen)
- Cells: Drosophila S2R+ haemocyte-like cells expressing YFP-tagged ERK (Rolled)
- Knock-down reagent: long dsRNA against Drosophila genes
- Treatment: insulin stimulation versus unstimulated cells; dose and duration not given
- Measured: 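Per-plate z-scores of phospho-ERK immunostaining normalised to YFP-tagged ERK, measured with and without insulin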
- Reading the numbers: replicate 1, z-score of dpERK with insulin and replicate 2, z-score of dpERK with insulin: higher = more active ERK per ERK-YFP after insulin; replicate 1, z-score of dpERK under basal conditions: higher = more basal active ERK per ERK-YFP; replicate 1, z-score of ERK-YFP with insulin: higher = more YFP-tagged ERK signal
In all, the deposit lists about 23,000 reagents; this is a random part of those that have a named target and a result. 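Extra replicates exist only for a retested subset of genes; insulin dose and duration not given; both raised and lowered dpERK matter.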 Reagents against one gene are numbered here. Names joined by + are all predicted targets of the reagent. Not stated in the record: the amount of reagent, the time to read-out.

no.	Target gene	reagent no.	replicate 1, z-score of dpERK with insulin	replicate 2, z-score of dpERK with insulin	replicate 1, z-score of dpERK under basal conditions	replicate 1, z-score of ERK-YFP with insulin
1	kat-60L1	1	-0.4	-0.43	0.45	-0.06
2	fw	1	0.86	0.3	-0.13	0.24
3	CG2065	1	0.47	-0.23	0.06	1.05
4	CG2065	2	0.72	1.14	0.1	1.4
5	Ace	1	0.55	0.09	0.05	0.07
6	Ace	2	-0.09	-0.08	-0.53	0.3
7	hbn	1	-5.54	-3.94	-1.48	-4
8	hbn	2	0.02	-0.11	0.7	1.09
9	hbn	3	-2.05	-1.3	-0.64	0.9
10	hbn	4	1.08	1.24	1.63	-2.03
11	fzy	1	-5.36	-2.58	-1.2	-10.5
12	CG46301	1	0.1	-0.3	0.64	0.03
13	CG13031	1	1.1	0.96	0.52	0.02
14	TBC1D16	1	-0.69	0.32	1.64	0.16
15	Argl + CG9515	1	0.48	0.18	0.73	-0.25
16	Argl + CG9515	2	-0.48	0.11	-0.14	1.01
17	CG10435	1	0.03	0.8	0.22	-0.98
18	GCS2beta	1	1.15	0.72	-0.22	-0.44
19	Gr98c	1	-1.84	0.81	-0.24	-0.3
20	cact	1	-2.37	-2.52	-1.27	-1.65
21	CG13408	1	0.33	-0.66	-0.21	0.35
22	CG13408	2	-0.13	-0.34	-0.41	0.4
23	CG4911	1	0.29	1.66	-0.22	-0.1

Sorted by “replicate 1, z-score of dpERK with insulin” (ascending): 2 of the entries above
Target gene	reagent no.	replicate 1, z-score of dpERK with insulin	replicate 2, z-score of dpERK with insulin	replicate 1, z-score of dpERK under basal conditions	replicate 1, z-score of ERK-YFP with insulin
fzy	1	-5.36	-2.58	-1.2	-10.5
hbn	4	1.08	1.24	1.63	-2.03
